Laboratory results reported in the supplement of paper PMC4604168 (melanoma cell lines).
Some of the results follow. Repeats are few or missing, and single values can be far off.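 The apoptosis fraction was the count of cleaved-PARP antibody-stained nuclei relative to all DNA-stained nuclei, imaged in 1,536-well plates. Screening doses were set so most cells survived, and baseline and induced cleaved-PARP levels vary greatly across cell lines.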

How the values were obtained:
Assay in all cases: cleaved PARP positive nuclei fraction relative to DMSO control; melanoma cells; higher = more apoptosis
Conditions in all cases: library dose: low library concentration; 72 h
MZ2-MEL = system: MZ2-MEL
MeWo = system: MeWo
RPMI7951 = system: RPMI7951
RVH-421 = system: RVH-421
SkMel28 = system: SkMel28
SkMel2 = system: SkMel2
SkMel30 = system: SkMel30
SkMel5 = system: SkMel5
UACC257 = system: UACC257
UACC62 = system: UACC62
WM115 = system: WM115
WM1716 = system: WM1716
WM1745 = system: WM1745
WM3526 = system: WM3526
WM3619 = system: WM3619
WM451Lu = system: WM451Lu

Row | Compound | cleaved PARP positive nuclei fraction (MZ2-MEL) | cleaved PARP positive nuclei fraction (MeWo) | cleaved PARP positive nuclei fraction (RPMI7951) | cleaved PARP positive nuclei fraction (RVH-421) | cleaved PARP positive nuclei fraction (SkMel28) | cleaved PARP positive nuclei fraction (SkMel2) | cleaved PARP positive nuclei fraction (SkMel30) | cleaved PARP positive nuclei fraction (SkMel5) | cleaved PARP positive nuclei fraction (UACC257) | cleaved PARP positive nuclei fraction (UACC62) | cleaved PARP positive nuclei fraction (WM115) | cleaved PARP positive nuclei fraction (WM1716) | cleaved PARP positive nuclei fraction (WM1745) | cleaved PARP positive nuclei fraction (WM3526) | cleaved PARP positive nuclei fraction (WM3619) | cleaved PARP positive nuclei fraction (WM451Lu)
1 | CC[C@]1(O)C[C@H]2CN(CCc3c([nH]c4ccccc34)[C@@](C(=O)OC)(c3cc4c(cc3OC)N(C=O)[C@H]3[C@@](O)(C(=O)OC)[C@H](OC(C)=O)[C@]5(CC)C=CCN6CC[C@]43[C@@H]65)C2)C1 [vincristine] + O=C(O)c1ccc(-c2c[nH]c3ncc(-c4ccccc4)cc23)cc1C1CCCC1 [GSK650394] (first compound 0.0001 µM, partner dose 0.16 µM) | 186% | 297% | 166% | 49.4% | 181% | 206% | 301% | 110% | 239% | 259% | 2400% | 439% | 106% | 118% | 158% | 197%
2 | Cc1cc(Nc2cc(N3CCN(C)CC3)nc(Sc3ccc(NC(=O)C4CC4)cc3)n2)n[nH]1 [Tozasertib] + COc1ccc2c(c1)CCC1C2CCC2(C)C(NCCCCCCN3C(=O)C=CC3=O)CCC12 [U73122] (first compound 0.006 µM, partner dose 0.4 µM) | 141% | 87.2% | 92.7% | 156% | 24.6% | 74.3% | 171% | 71.7% | 38.4% | 118% | 242% | 44.2% | 95.9% | 83% | 81.4% | 49.9%
3 | Cc1cn(-c2cc(NC(=O)c3ccc(C)c(Nc4nccc(-c5cccnc5)n4)c3)cc(C(F)(F)F)c2)cn1 [nilotinib] + Cc1cc(N2CCOCC2)cc2[nH]c(-c3c(NC[C@@H](O)c4cccc(Cl)c4)cc[nH]c3=O)nc12 [BMS536924] (first compound 0.2 µM, partner dose 0.2 µM) | 120% | 75.1% | 51% | 97.2% | 54.1% | 86.8% | 91% | 192% | 78.3% | 122% | 148% | 51.8% | 142% | 141% | 83.1% | 85.3%
4 | COc1cc([C@@H]2c3cc4c(cc3[C@@H](O[C@@H]3O[C@@H]5CO[C@@H](C)O[C@H]5[C@H](O)[C@H]3O)[C@H]3COC(=O)[C@H]23)OCO4)cc(OC)c1O [etoposide] + O=C(CCCCCCC(=O)Nc1ccccc1)NO [vorinostat] (first compound 0.02 µM, partner dose 0.08 µM) | 161% | 90.3% | 33.4% | 99.2% | 82.4% | 97.6% | 145% | 44.9% | 84.1% | 120% | 48.8% | 60% | 82.1% | 176% | 101% | 69.4%
5 | O=C(/C=C/c1cccnc1)NCCCCC1CCN(C(=O)c2ccccc2)CC1 + COc1ccc(-c2ccc3c(N4CCOCC4)nc(N4C[C@@H](C)O[C@@H](C)C4)nc3n2)cc1CO [KU0063794] (first compound 0.01 µM, partner dose 0.02 µM) | 666% | 51.6% | 27.1% | 239% | 82.1% | 300% | 24.6% | 75.5% | 250% | 40.2% | 157% | 109% | 76.3% | 232% | 102% | 51.8%
6 | CCCCCCCCCCCCCCCCCCOP(=O)([O-])OC1CC[N+](C)(C)CC1 [Perifosine] + Cc1ccc(NC(=O)c2cccc(N(C)C)c2)cc1NC(=O)c1ccc(O)cc1 [ZM336372] (first compound 0.4 µM, partner dose 2 µM) | 233% | 117% | 66.3% | 48% | 138% | 95.1% | 82.8% | 116% | 110% | 34.4% | 44.8% | 57.1% | 117% | 111% | 111% | 52.9%
7 | N#CC[C@H](C1CCCC1)n1cc(-c2ncnc3[nH]ccc23)cn1 [ruxolitinib] + COc1ccc(COc2ccc(Cc3cnc(N)nc3N)cc2OC)cc1 [GW2580] (first compound 1 µM, partner dose 1 µM) | 137% | 100% | 287% | 89% | 124% | 106% | 278% | 84.4% | 318% | 131% | 38.2% | 200% | 92.5% | 65.7% | 220% | 74.9%
8 | Cc1ccc(Nc2nccc(N(C)c3ccc4c(C)n(C)nc4c3)n2)cc1S(N)(=O)=O [Pazopanib] + CCCCCCCCCCCC1=C(O)C(=O)C=C(O)C1=O [Embelin] (first compound 0.4 µM, partner dose 1.2 µM) | 173% | 123% | 76.3% | 113% | 101% | 122% | 51.2% | 75% | 224% | 80.6% | 348% | 213% | 86% | 85.7% | 102% | 68.3%
9 | Cc1cc(Nc2cc(N3CCN(C)CC3)nc(Sc3ccc(NC(=O)C4CC4)cc3)n2)n[nH]1 [Tozasertib] + CCc1ccc(CCOc2ccc(CC3SC(=O)NC3=O)cc2)nc1 [pioglitazone] (first compound 0.006 µM, partner dose 2 µM) | 51.1% | 92.3% | 33.6% | 83.9% | 121% | 124% | 89.5% | 67.3% | 62.4% | 70.4% | 108% | 114% | 110% | 71.6% | 97.3% | 227%
10 | Cc1cn(-c2cc(NC(=O)c3ccc(C)c(Nc4nccc(-c5cccnc5)n4)c3)cc(C(F)(F)F)c2)cn1 [nilotinib] + CCN(CC)CCCCNc1ncc2cc(-c3cc(OC)cc(OC)c3)c(NC(=O)NC(C)(C)C)nc2n1 [PD173074] (first compound 0.2 µM, partner dose 0.1 µM) | 93.1% | 47.3% | 105% | 83.9% | 185% | 58.2% | 30.6% | 75.7% | 223% | 100% | 102% | 67.8% | 97.2% | 28.3% | 72.8% | 121%
11 | O=C(Nc1cc(C(F)(F)F)cc(C(F)(F)F)c1)c1cc(Cl)ccc1O + COC(=O)c1sccc1S(=O)(=O)Nc1ccc(Nc2ccccc2)cc1OC [GSK0660] (first compound 0.016 µM, partner dose 1 µM) | 94.6% | 358% | 177% | 67.7% | 30.1% | 104% | 144% | 157% | 198% | 75.1% | 76.4% | 160% | 87.4% | 89% | 106% | 97.5%
12 | O=C(Nc1cc(C(F)(F)F)cc(C(F)(F)F)c1)c1cc(Cl)ccc1O + CC(C)CCN1c2nc(Nc3cc(F)c(O)c(F)c3)ncc2N(C)C(=O)C1C [BID1870] (first compound 0.016 µM, partner dose 0.2 µM) | 99.1% | 184% | 246% | 141% | 120% | 61.8% | 206% | 150% | 130% | 88.4% | 170% | 141% | 151% | 346% | 72.1% | 198%
13 | CC[C@]1(O)C[C@H]2CN(CCc3c([nH]c4ccccc34)[C@@](C(=O)OC)(c3cc4c(cc3OC)N(C=O)[C@H]3[C@@](O)(C(=O)OC)[C@H](OC(C)=O)[C@]5(CC)C=CCN6CC[C@]43[C@@H]65)C2)C1 [vincristine] + Oc1nc(-c2ccc(C(F)(F)F)cc2)nc2c1CSCC2 [XAV939] (first compound 0.0001 µM, partner dose 2 µM) | 133% | 99.8% | 122% | 49% | 352% | 102% | 156% | 180% | 233% | 227% | 937% | 314% | 118% | 115% | 147% | 211%
14 | O=c1[nH]nc(Sc2ncc([N+](=O)[O-])s2)n1-c1ccc2c(c1)OCCO2 + O=C(O)C(=O)Nc1sc2c(c1C(=O)O)CCNC2 [TCS401] (first compound 0.2 µM, partner dose 1.66667 µM) | 79.2% | 24.1% | 113% | 146% | 98.9% | 75.5% | 125% | 77.7% | 90.6% | 98.8% | 190% | 324% | 111% | 76% | 96.5% | 70.6%
15 | N#CC[C@H](C1CCCC1)n1cc(-c2ncnc3[nH]ccc23)cn1 [ruxolitinib] + CCc1ccc(CCOc2ccc(CC3SC(=O)NC3=O)cc2)nc1 [pioglitazone] (first compound 1 µM, partner dose 2 µM) | 126% | 25.4% | 85.6% | 191% | 101% | 65.9% | 90.2% | 72.9% | 78.2% | 68.9% | 131% | 447% | 95.1% | 38.5% | 102% | 68.5%
16 | N#CC[C@H](C1CCCC1)n1cc(-c2ncnc3[nH]ccc23)cn1 [ruxolitinib] + COc1ccc(-c2ccc3c(N4CCOCC4)nc(N4C[C@@H](C)O[C@@H](C)C4)nc3n2)cc1CO [KU0063794] (first compound 1 µM, partner dose 0.02 µM) | 204% | 322% | 164% | 162% | 177% | 75.2% | 42.6% | 71.5% | 222% | 70.6% | 55% | 37.6% | 99.3% | 70.7% | 113% | 144%
17 | Cc1cn(-c2cc(NC(=O)c3ccc(C)c(Nc4nccc(-c5cccnc5)n4)c3)cc(C(F)(F)F)c2)cn1 [nilotinib] + O=C(Nc1ccccc1)c1cc([N+](=O)[O-])ccc1Cl [GW9662] (first compound 0.2 µM, partner dose 2 µM) | 122% | 173% | 78.6% | 32.3% | 78.2% | 139% | 46.5% | 81.6% | 150% | 191% | 72.4% | 102% | 230% | 71.8% | 93.2% | 30.4%
18 | O=C(Nc1cc(C(F)(F)F)cc(C(F)(F)F)c1)c1cc(Cl)ccc1O + O=S(=O)(c1ccccc1)N(CC(F)(F)F)c1ccc(C(O)(C(F)(F)F)C(F)(F)F)cc1 [T0901317] (first compound 0.016 µM, partner dose 1.4 µM) | 107% | 208% | 41.8% | 88.2% | 88% | 129% | 22% | 186% | 196% | 170% | 29.6% | 48.7% | 106% | 143% | 76.5% | 431%

Reformatted in markdown: entries from further up.

| Row | Compound | cleaved PARP positive nuclei fraction (MZ2-MEL) | cleaved PARP positive nuclei fraction (MeWo) | cleaved PARP positive nuclei fraction (RPMI7951) | cleaved PARP positive nuclei fraction (RVH-421) | cleaved PARP positive nuclei fraction (SkMel28) | cleaved PARP positive nuclei fraction (SkMel2) | cleaved PARP positive nuclei fraction (SkMel30) | cleaved PARP positive nuclei fraction (SkMel5) | cleaved PARP positive nuclei fraction (UACC257) | cleaved PARP positive nuclei fraction (UACC62) | cleaved PARP positive nuclei fraction (WM115) | cleaved PARP positive nuclei fraction (WM1716) | cleaved PARP positive nuclei fraction (WM1745) | cleaved PARP positive nuclei fraction (WM3526) | cleaved PARP positive nuclei fraction (WM3619) | cleaved PARP positive nuclei fraction (WM451Lu) |
| --- | --- | --- | --- | --- | --- | --- | --- | --- | --- | --- | --- | --- | --- | --- | --- | --- | --- |
| 1 | CC[C@]1(O)C[C@H]2CN(CCc3c([nH]c4ccccc34)[C@@](C(=O)OC)(c3cc4c(cc3OC)N(C=O)[C@H]3[C@@](O)(C(=O)OC)[C@H](OC(C)=O)[C@]5(CC)C=CCN6CC[C@]43[C@@H]65)C2)C1 [vincristine] + O=C(O)c1ccc(-c2c[nH]c3ncc(-c4ccccc4)cc23)cc1C1CCCC1 [GSK650394] (first compound 0.0001 µM, partner dose 0.16 µM) | 186% | 297% | 166% | 49.4% | 181% | 206% | 301% | 110% | 239% | 259% | 2400% | 439% | 106% | 118% | 158% | 197% |
| 11 | O=C(Nc1cc(C(F)(F)F)cc(C(F)(F)F)c1)c1cc(Cl)ccc1O + COC(=O)c1sccc1S(=O)(=O)Nc1ccc(Nc2ccccc2)cc1OC [GSK0660] (first compound 0.016 µM, partner dose 1 µM) | 94.6% | 358% | 177% | 67.7% | 30.1% | 104% | 144% | 157% | 198% | 75.1% | 76.4% | 160% | 87.4% | 89% | 106% | 97.5% |
| 13 | CC[C@]1(O)C[C@H]2CN(CCc3c([nH]c4ccccc34)[C@@](C(=O)OC)(c3cc4c(cc3OC)N(C=O)[C@H]3[C@@](O)(C(=O)OC)[C@H](OC(C)=O)[C@]5(CC)C=CCN6CC[C@]43[C@@H]65)C2)C1 [vincristine] + Oc1nc(-c2ccc(C(F)(F)F)cc2)nc2c1CSCC2 [XAV939] (first compound 0.0001 µM, partner dose 2 µM) | 133% | 99.8% | 122% | 49% | 352% | 102% | 156% | 180% | 233% | 227% | 937% | 314% | 118% | 115% | 147% | 211% |
| 17 | Cc1cn(-c2cc(NC(=O)c3ccc(C)c(Nc4nccc(-c5cccnc5)n4)c3)cc(C(F)(F)F)c2)cn1 [nilotinib] + O=C(Nc1ccccc1)c1cc([N+](=O)[O-])ccc1Cl [GW9662] (first compound 0.2 µM, partner dose 2 µM) | 122% | 173% | 78.6% | 32.3% | 78.2% | 139% | 46.5% | 81.6% | 150% | 191% | 72.4% | 102% | 230% | 71.8% | 93.2% | 30.4% |
